# PubChem BioAssay AID504791 | Drosophila RNAi Screening Center | 2011
# Aim: 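Factors in Argonaute-based small RNA production and activity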 (primary screen)
# Cell system: Drosophila S2-derived reporter cells
# Reagents: long dsRNA against Drosophila genes, about 150-250 ng dsRNA per well (siRNA assay); about 80-120 ng (miRNA assay)
# Time to read-out: about 5 days (siRNA assay); about 4 days (miRNA assay)
# Treatment: copper sulfate induction of reporters: 25 µM (siRNA assay); 200 mM stated (miRNA assay), 1-2 days before reading
# Detection: 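Per-well ratio of Renilla over firefly light, expressed relative to that plate's average ratio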
# Rule for the call: 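First-pass picks had plate-scaled ratios over 1.5 for the siRNA assay, over 1.6 for the miRNA assay, or under 0.6; two distinct dsRNAs had to score alike on retest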
# The deposit covers about 23,000 reagents; shown is an unselected part of those with a known target gene and a result. Over the whole deposit, 199 (0.86%) were called active. 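Plate-scaled ratios behind the calls are not deposited; printed light signals are raw; many rows marked increased or decreased are still called inactive.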 Reagents against one gene are numbered here. A plus sign joins genes that one reagent is predicted to hit. Not stated in the record: the direction of the score.
predicted target,reagent,stable siRNA reporter change,"stable assay Renilla, run 1 (luminescence)","stable assay firefly, run 1 (luminescence)",Outcome
CG1092,1,,7350,2.85e5,inactive
CG31221,1,,6428,3.36e5,inactive
CG31221,2,,5994,2.62e5,inactive
Cbl,1,,6096,4.42e5,inactive
Cbl,2,,6491,5.29e5,inactive
Ilp8,1,,7752,4.17e5,inactive
ppk14,1,,7939,5.36e5,inactive
Tmep,1,,9062,2.72e5,inactive
p38c,1,,3795,3.83e5,inactive
lncRNA:CR32385,1,,4667,4.74e5,inactive
Trap1,1,,13528,1.66e6,inactive
CG14829,1,,5671,4.60e5,inactive
Spn28Da,1,,6566,3.59e5,inactive
ND-MNLL,1,,5836,4.17e5,inactive
tplus3a + tplus3b,1,,6530,3.41e5,inactive
KaiR1D,1,,6958,2.65e5,inactive
unc-104,1,,6118,3.15e5,inactive
lds,1,,6343,3.67e5,inactive
CG17801,1,,6952,3.34e5,inactive
mthl10,1,,7490,4.76e5,inactive
mthl10,2,,6259,4.11e5,inactive
CG14770,1,,4700,3.57e5,inactive
eIF4E1,1,,9294,5.28e5,inactive
indra,1,,10575,3.71e5,inactive
Toll-6,1,,6764,4.01e5,inactive
nub,1,,5488,5.78e5,inactive
nub,2,,7419,4.15e5,inactive
nub,3,,6084,3.61e5,inactive
nub,4,reporter ratio raised past the hit cutoff,7755,2.66e5,inactive
nub,5,,5531,4.91e5,inactive
kl-5 (retired record),1,,6564,5.48e5,inactive
kl-5 (retired record),2,,3851,2.92e5,inactive
kl-5 (retired record),3,,4587,3.29e5,inactive
kl-5 (retired record),4,,5563,4.66e5,inactive

Laid out differently: results already given.
predicted target	reagent	stable siRNA reporter change	stable assay Renilla, run 1 (luminescence)	stable assay firefly, run 1 (luminescence)	Outcome
CG14770	1		4700	3.57e5	inactive
eIF4E1	1		9294	5.28e5	inactive
indra	1		10575	3.71e5	inactive
Toll-6	1		6764	4.01e5	inactive
nub	1		5488	5.78e5	inactive
